This assay concerns the target HA-NMNAT2 (human nicotinamide mononucleotide adenylyl transferase 2, wild type) (human) (UniProt Q9BZQ4). In words: co-IP; HA-tagged NMNAT2 (WT or variants) immunoprecipitated from soluble lysates of the doxycycline-induced hTau40 HEK293 stable cell line, 48 h after transfection; blots for HSP90, HSP70, HOP, CHIP.

By UniProt entry, the sequences of proteins in these tests, tags left out.
UniProt Q9UNE7: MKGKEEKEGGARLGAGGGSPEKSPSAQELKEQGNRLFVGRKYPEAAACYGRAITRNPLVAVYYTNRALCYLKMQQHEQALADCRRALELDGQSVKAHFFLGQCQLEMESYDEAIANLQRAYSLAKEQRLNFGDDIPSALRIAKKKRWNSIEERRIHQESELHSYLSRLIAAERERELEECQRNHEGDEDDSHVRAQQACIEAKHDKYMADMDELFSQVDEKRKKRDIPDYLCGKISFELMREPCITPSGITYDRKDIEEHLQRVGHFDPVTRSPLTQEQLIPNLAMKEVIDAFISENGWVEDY

These are yes or no findings as the source states them, for the method shown. Binding seen in cells or lysates may run through a third protein.

With “C-terminus of HSC70 Interacting Protein (CHIP), endogenous in HEK293-tau cells (from UniProt Q9UNE7 1-303)”, the binding entry is “no binding”.

In the case of “HOP, endogenous in HEK293-tau cells (from UniProt P31948 1-543)”, the binding entry is “no binding”.

These data come from PMC4890852.
